## Screening data, single-dose tests

The chains behind the UniProt entries cited, without tags or fusion partners. Residues count along the entry.
UniProt Q8IDJ8, 1-583: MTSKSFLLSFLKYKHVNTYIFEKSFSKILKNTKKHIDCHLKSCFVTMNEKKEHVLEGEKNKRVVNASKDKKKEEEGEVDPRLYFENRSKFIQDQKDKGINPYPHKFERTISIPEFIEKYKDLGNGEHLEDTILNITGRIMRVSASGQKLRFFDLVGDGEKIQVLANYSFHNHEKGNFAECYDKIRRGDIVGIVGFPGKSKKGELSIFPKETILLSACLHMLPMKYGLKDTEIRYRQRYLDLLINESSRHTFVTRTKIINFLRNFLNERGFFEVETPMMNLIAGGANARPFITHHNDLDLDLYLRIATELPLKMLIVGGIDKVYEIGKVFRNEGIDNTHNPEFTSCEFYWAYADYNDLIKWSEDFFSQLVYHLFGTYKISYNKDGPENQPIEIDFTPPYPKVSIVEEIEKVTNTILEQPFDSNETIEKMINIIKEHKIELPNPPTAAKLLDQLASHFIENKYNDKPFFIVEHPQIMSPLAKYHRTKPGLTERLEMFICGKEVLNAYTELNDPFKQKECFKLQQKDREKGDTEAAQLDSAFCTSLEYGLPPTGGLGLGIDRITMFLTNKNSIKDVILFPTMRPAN

Measurements from “University of Dundee, Small-Polar-MMV Screening Library” (2021), ChEMBL document CHEMBL3988442.

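Enzyme assay of the cytosolic lysyl-tRNA synthetase in 384-well plates, read by luminescence. Target: Lysine-tRNA ligase, Plasmodium falciparum 3D7 (UniProt Q8IDJ8). Compounds at 30 µM. Higher reads as stronger inhibition, judged from the few compounds that gave an IC50. Of about 69,000 compounds tested this way, about 49 (0.071%) reached 50% or more in at least one test.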

Values are the deposited “Percent Effect”, in %.
The controls that fix the scale are not given in the record; negative values are as filed.
This is an unselected part of the compounds tested.

Compound,effect
CC(Cn1cccn1)NC(=O)NCc1cccs1 (centres undefined),4.63
O=C(c1ccno1)N1CCC2(CC1)C(=O)Nc1ccccc12,4.87
Cc1ccc(N2CCCN(C(=O)CCc3nccs3)CC2)nn1,-0.3522
Cc1cn(CC(=O)NC2CCN(S(C)(=O)=O)CC2)c2ccccc12,2.701
Cc1cn2nc(N3CCCC3Cn3nc(C)cc3C)sc2n1 (centres undefined),2.541
COc1cc2c(cc1CNCc1cccnc1-n1cccn1)OC(C)C2 (centres undefined),-2.091
Cc1ccc(CN2CCn3c(C(=O)N(C)C)cnc3C2)s1,-0.4647
O=C(NCCn1ccnc1)N1CCCC1c1ccc2c(c1)OCCO2 (centres undefined),-0.8366
CNC(=O)NC(C)c1nc(-c2ccccc2)c[nH]1 (centres undefined),4.977
COCCN1Cc2ccccc2C2(CCN(C(=O)c3ccco3)CC2)C1,-1.156
OC(CN1CCOCC1)c1cc(Cl)ccc1Cl (centres undefined),-4.794
CCc1ccc(CNC(=O)Nc2cc(C)on2)s1,5.902
CN(C)C[C@]12COC[C@H]1CN(C(=O)Cc1ccc3c(c1)OCO3)C2,-0.105
Cc1cc(CN2CCC(CNS(=O)(=O)c3ccccc3Cl)CC2)c(C)o1,8.259
Cc1cc(C)c2[nH]c(=O)c(CN3CCCC4(C3)CN(C)C(=O)O4)cc2c1 (centres undefined),9.549
CC(=O)N1CCCN(C(=O)NCc2cccnc2OC(C)C)CC1,0.5668
c1ccc(-n2ncc(CN3CCCC(Cn4cncn4)C3)n2)cc1 (centres undefined),0.7064
COc1ccc(C(=O)NCCCC2(C3OCCO3)CCOCC2)cc1,2.752
CC(C1CC1)N(C)C(=O)c1cnc(-c2ccc3c(c2)OCO3)s1 (centres undefined),-1.24
COCC(=O)N1CCC(c2noc3nc(C)cc(C(F)(F)F)c23)CC1,-4.639
Fc1ccc2c(c1)nc1n2[C@@H](CNCc2nccs2)COC1,6.119
c1cncc(CN2CCO[C@@H]3CN(Cc4ccoc4)CC[C@@H]3C2)c1,-1.44
COc1ncnc2c1CCN(Cc1cccs1)CC2,2.153
Oc1ccc(-c2c(-c3ccccc3)ncn2C2CCNC2)cc1 (centres undefined),1.189
COCCN(Cc1ccccc1)c1cc(C)ncn1,-1.718
CCOCC1CN(Cc2ccc(F)cc2)Cc2nn(C)cc21 (centres undefined),4.7
COCCCSc1ccc(NC(=O)Nc2cn[nH]c2)cc1,-4.165
CC(C)c1noc(CN2CCCC2c2noc(C(C)C)n2)n1 (centres undefined),1.745
CN(Cc1cn2ccccc2c1C#N)C1CCCN(c2cccnn2)C1 (centres undefined),1.299
Cc1cc(N2CCCC(O)CC2)n2nc(C)c(C)c2n1 (centres undefined),-1.425
COc1ccc(F)cc1CN1CCC(O)(CN2CCCCC2)C1 (centres undefined),3.846
Cc1nc(CNC(=O)Nc2ccc(N(C)C)nc2)sc1C,5.703
CCOc1cc(C(=O)N2CCCC(n3nc(C)nc3C)C2)ccn1 (centres undefined),0.6551
O=C(Cc1cccs1)N1CCC2(CC1)COCCN2CC1CC1,5.246
CN(C)Cc1noc2c1CN(Cc1ccsc1)CC2,3.237
O=C1CCC(CCC(=O)N2CCC2c2cccs2)=NN1 (centres undefined),2.05
COC(=O)[C@H]1CN(C(=O)NC(C)C)CCN1C(=O)CSC,4.88
CC(=O)N(C)C(c1cccc(F)c1)c1ccccn1 (centres undefined),2.932
COc1ccc(OC)c(C(O)CNC(=O)Nc2ccc(F)cc2F)c1 (centres undefined),1.57
Cn1c(NCC(O)c2ccc(F)c(F)c2)c(C#N)c(=O)n(C)c1=O (centres undefined),1.052
Cc1nc2c(c(NCCN3CCOCC3)n1)CCN(C)C2,-1.039
O=C(c1ccccn1)N1CCN(c2ccc(-n3cccc3)nn2)CC1,-5.886
NC(=O)CCn1cc(CNCCCc2ccccc2O)c2ccccc21,3.775
CC(O)CN1CCC(CN(C)Cc2cc(F)cc3cccnc23)CC1 (centres undefined),-3.945
Cc1ccc2nc(C)cc(C(=O)N[C@H]3COC[C@@H]3N3CCOCC3)c2c1,3.127
CCC1CN(C(=O)NCc2cccnc2-n2cccn2)CCO1 (centres undefined),2.247
c1ccc(NCc2cn3c(n2)CN(Cc2ccoc2)CC3)nc1,4.011
CN1CCCN(CC(CC(=O)Nc2ccc(Cl)cc2)C(=O)O)CC1 (centres undefined),1.716
CCc1nc(-c2cncnc2C2CCNC2)no1 (centres undefined),0.7783
CCc1nc(NS(=O)(=O)c2ccc(C)cc2Cl)no1,-3.471
O=C(c1ccccn1)N1CCc2ncc(Cn3cccn3)n2CC1,2.713
CSC(C)C(=O)N1CCCN(Cc2cscn2)CC1 (centres undefined),-4.911
COc1ccc(F)cc1-c1nc2c([nH]1)c(C1CC1)nn2C,-0.1775
O=C(CCc1cc2n(n1)CCN(Cc1ccncc1)C2)N1CCCC1,2.848
Cc1nc(C)n(CC2CCCN2CC(=O)Nc2nncs2)n1 (centres undefined),2.59
CCCn1ncc2c(C(=O)Nc3n[nH]c(SC)n3)cc(C3CC3)nc21,3.496
O=C([C@H]1CCCN1)N1CC2(CCNCC2)c2cc(Cl)ccc21,1.606
CCCN(Cc1nnnn1C1CC1)CC1COc2ccccc2O1 (centres undefined),6.774

The first 7 entries again:

Result for CC(Cn1cccn1)NC(=O)NCc1cccs1 (centres undefined) was 4.63%.
Result for O=C(c1ccno1)N1CCC2(CC1)C(=O)Nc1ccccc12 was 4.87%.
Result for Cc1ccc(N2CCCN(C(=O)CCc3nccs3)CC2)nn1 was -0.3522%.
Result for Cc1cn(CC(=O)NC2CCN(S(C)(=O)=O)CC2)c2ccccc12 was 2.701%.
Result for Cc1cn2nc(N3CCCC3Cn3nc(C)cc3C)sc2n1 (centres undefined) was 2.541%.
Result for COc1cc2c(cc1CNCc1cccnc1-n1cccn1)OC(C)C2 (centres undefined) was -2.091%.
Result for Cc1ccc(CN2CCn3c(C(=O)N(C)C)cnc3C2)s1 was -0.4647%.